Our source for the binding values is publication PMC7946643.

Protein sequences, listed by entry. Tags and fused reporters are not part of them. Lines headed by an entry give the natural chain unless they say otherwise; changes in a name come on top.
UniProt Q96RD7: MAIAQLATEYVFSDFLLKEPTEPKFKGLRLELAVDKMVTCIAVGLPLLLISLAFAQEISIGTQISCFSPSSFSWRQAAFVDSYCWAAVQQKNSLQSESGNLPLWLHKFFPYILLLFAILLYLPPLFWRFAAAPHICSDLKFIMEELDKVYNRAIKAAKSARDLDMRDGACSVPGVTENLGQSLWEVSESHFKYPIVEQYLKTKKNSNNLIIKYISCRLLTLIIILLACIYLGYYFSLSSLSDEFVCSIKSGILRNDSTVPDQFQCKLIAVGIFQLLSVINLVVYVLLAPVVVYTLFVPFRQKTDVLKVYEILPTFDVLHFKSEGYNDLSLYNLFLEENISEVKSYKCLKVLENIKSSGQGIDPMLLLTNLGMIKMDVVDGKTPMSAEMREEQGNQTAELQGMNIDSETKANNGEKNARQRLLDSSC
UniProt P46939: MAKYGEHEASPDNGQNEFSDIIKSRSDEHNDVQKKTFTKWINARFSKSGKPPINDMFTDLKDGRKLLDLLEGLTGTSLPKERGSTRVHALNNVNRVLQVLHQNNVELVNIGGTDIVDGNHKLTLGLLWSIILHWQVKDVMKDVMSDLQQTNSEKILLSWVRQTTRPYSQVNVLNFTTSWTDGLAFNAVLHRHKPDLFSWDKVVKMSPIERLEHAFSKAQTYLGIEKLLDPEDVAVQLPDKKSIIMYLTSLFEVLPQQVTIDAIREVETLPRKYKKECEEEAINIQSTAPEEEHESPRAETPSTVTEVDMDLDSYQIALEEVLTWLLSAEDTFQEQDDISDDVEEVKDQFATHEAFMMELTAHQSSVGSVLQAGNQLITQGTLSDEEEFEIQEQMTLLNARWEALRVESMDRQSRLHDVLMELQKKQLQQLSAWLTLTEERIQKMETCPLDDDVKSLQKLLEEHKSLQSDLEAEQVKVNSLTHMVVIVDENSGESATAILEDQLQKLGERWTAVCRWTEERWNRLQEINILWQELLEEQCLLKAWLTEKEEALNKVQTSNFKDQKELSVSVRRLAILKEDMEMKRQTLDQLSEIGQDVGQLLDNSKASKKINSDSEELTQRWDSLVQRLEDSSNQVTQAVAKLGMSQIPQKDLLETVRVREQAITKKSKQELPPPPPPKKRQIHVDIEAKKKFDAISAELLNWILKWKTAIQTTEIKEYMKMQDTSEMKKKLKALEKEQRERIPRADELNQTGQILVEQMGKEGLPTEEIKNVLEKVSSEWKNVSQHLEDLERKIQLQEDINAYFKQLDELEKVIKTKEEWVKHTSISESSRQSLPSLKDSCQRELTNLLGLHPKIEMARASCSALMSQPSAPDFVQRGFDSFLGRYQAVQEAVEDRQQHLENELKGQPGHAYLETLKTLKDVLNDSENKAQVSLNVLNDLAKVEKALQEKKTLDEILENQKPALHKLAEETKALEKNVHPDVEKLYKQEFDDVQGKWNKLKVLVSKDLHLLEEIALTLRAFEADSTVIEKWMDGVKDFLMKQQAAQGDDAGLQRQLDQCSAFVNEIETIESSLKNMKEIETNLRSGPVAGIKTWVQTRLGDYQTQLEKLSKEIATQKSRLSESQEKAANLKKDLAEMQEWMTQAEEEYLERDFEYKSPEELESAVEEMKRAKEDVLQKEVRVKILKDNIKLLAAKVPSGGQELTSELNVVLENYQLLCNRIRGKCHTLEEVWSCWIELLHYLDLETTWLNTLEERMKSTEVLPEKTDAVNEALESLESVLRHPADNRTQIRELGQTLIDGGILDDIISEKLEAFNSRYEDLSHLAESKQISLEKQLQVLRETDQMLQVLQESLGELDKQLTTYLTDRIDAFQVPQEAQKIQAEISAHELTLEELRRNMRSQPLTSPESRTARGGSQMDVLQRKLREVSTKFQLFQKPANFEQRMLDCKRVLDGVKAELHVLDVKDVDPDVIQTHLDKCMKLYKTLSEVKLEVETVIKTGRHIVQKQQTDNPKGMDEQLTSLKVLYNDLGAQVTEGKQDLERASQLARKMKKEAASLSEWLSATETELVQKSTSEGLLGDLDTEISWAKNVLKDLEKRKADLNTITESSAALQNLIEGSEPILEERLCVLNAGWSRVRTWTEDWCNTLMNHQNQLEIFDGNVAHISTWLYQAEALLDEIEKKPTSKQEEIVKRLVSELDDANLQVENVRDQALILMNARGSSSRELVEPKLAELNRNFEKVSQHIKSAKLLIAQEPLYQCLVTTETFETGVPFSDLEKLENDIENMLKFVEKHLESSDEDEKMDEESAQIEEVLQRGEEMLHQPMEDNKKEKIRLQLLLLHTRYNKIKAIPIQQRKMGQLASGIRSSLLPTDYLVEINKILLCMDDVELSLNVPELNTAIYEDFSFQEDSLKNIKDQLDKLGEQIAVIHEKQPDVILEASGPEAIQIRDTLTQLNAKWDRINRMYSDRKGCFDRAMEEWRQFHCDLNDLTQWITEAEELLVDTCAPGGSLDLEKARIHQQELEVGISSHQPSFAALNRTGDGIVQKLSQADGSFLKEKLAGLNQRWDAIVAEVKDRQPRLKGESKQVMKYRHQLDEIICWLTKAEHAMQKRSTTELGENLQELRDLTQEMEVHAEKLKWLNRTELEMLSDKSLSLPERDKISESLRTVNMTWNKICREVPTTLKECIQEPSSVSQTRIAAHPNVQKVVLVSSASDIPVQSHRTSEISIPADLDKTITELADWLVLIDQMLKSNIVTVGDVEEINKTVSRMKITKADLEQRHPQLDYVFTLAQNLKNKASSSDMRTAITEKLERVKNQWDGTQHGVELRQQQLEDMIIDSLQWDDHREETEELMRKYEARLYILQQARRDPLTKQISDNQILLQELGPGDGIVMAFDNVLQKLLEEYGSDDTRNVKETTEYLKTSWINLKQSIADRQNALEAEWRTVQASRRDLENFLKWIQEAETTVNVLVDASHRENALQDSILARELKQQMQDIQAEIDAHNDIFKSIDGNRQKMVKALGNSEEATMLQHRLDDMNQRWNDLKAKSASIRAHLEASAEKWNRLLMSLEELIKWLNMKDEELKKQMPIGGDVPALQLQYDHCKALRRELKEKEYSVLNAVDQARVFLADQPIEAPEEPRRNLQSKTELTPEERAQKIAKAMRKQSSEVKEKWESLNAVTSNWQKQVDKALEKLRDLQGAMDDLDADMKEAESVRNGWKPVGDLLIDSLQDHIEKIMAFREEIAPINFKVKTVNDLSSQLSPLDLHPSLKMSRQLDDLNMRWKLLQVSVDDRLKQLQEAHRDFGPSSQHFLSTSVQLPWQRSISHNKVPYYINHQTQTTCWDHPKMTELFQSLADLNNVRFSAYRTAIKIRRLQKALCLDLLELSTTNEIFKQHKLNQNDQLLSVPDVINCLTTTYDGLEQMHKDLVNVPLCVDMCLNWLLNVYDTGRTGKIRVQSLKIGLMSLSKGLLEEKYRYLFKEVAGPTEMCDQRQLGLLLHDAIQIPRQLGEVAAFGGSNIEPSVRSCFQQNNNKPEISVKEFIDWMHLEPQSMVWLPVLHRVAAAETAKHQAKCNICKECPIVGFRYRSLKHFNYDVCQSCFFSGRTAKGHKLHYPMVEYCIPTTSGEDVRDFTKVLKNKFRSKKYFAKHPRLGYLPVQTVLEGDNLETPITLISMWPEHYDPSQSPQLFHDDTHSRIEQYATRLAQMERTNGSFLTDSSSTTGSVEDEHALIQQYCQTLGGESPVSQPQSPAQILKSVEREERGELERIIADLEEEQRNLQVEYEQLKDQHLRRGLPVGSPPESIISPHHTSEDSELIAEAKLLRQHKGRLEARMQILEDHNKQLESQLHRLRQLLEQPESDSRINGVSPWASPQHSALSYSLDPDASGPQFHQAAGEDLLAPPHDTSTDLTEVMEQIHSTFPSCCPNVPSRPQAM
UniProt P35579: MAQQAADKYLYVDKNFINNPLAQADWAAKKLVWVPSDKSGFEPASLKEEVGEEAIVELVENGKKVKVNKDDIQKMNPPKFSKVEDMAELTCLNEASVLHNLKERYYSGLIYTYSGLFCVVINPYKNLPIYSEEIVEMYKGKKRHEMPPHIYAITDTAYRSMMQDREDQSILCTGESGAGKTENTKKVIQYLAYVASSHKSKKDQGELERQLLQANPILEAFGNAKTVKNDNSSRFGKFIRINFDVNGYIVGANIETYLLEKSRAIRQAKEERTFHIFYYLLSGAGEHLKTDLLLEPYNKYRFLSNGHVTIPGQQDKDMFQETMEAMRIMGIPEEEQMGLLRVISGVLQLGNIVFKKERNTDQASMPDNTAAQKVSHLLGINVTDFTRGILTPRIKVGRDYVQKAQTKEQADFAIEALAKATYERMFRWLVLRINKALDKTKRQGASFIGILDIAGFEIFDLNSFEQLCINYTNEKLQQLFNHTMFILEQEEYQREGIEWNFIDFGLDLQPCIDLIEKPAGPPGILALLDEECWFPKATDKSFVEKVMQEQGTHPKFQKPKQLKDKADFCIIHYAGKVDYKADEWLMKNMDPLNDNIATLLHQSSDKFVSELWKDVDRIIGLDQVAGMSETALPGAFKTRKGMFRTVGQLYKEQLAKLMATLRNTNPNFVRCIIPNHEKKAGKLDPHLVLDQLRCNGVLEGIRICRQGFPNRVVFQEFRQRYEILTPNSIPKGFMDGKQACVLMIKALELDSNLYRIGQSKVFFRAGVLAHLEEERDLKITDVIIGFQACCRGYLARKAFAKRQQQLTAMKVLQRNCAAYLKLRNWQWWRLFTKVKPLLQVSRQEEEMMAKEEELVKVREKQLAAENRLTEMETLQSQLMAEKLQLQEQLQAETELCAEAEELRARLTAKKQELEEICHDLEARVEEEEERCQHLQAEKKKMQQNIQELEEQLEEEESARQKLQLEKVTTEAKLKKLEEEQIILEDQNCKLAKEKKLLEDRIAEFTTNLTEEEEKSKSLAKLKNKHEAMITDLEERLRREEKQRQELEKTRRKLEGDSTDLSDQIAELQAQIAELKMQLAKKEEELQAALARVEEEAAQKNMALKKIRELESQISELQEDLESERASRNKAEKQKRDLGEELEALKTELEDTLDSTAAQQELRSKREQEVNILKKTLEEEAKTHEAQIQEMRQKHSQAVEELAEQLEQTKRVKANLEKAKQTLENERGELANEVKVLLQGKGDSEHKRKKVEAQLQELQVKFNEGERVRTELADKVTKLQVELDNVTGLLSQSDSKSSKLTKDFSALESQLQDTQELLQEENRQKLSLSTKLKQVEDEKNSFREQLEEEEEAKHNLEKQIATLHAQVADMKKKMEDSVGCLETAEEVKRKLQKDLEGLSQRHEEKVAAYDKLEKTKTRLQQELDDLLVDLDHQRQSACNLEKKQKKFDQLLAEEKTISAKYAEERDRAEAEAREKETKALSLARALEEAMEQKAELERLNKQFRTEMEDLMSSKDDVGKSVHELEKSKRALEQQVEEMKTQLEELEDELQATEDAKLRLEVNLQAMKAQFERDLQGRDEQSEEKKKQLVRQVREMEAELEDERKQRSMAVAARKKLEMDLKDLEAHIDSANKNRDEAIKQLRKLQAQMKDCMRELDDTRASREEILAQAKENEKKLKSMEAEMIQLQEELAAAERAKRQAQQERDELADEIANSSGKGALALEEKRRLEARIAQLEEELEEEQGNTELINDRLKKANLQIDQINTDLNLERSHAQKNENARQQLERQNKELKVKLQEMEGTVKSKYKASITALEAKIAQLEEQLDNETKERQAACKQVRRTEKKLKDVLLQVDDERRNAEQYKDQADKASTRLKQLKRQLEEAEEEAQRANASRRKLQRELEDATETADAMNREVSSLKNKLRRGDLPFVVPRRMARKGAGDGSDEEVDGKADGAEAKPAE
UniProt P07355: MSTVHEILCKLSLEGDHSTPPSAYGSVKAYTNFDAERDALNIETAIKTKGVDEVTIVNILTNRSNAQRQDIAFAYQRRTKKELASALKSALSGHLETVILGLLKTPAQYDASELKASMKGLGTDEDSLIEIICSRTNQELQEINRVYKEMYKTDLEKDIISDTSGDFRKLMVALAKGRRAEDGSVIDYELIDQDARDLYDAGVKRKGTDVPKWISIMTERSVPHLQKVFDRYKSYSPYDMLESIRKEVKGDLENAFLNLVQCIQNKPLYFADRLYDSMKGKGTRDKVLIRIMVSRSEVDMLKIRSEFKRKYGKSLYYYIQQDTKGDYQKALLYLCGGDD

In experiment [1] the target is PANX1-BirA*(R118G)-HA (UniProt Q96RD7). As to the kind of experiment: proximity labelling; BioID: BirA*-PANX1 induced with cumate in stable Rh18 and Rh30 cells, biotin for 24 h, biotinylated proteins captured on streptavidin beads, digested on-bead, HPLC-ESI-MS/MS; Myc-PANX1 as background control.
The target in another experiment is Myc-PANX1 (UniProt Q96RD7). As to the kind of experiment: affinity purification with mass spectrometry; Myc-PANX1-enriched sucrose-gradient fractions of stable Rh18 and Rh30 cells pooled, buffer exchanged for IP lysis buffer (150 mM NaCl, 10 mM Tris-HCl pH 7.4, 1 mM EDTA, 0.5% NP-40, 1% Triton X-100), co-IP with anti-Myc antibodies, HPLC-ESI-MS/MS; GFP control fractions as background.

Experiment [2] concerns the target PANX1-BirA*(R118G)-HA (UniProt Q96RD7). As to the kind of experiment: proximity labelling; BioID: BirA*-PANX1 induced with cumate in stable Rh18 and Rh30 cells, biotin for 24 h, biotinylated proteins captured on streptavidin beads, digested on-bead, HPLC-ESI-MS/MS; Myc-PANX1 as background control. This is another data set of the same source.

Read-outs that look alike come from different tables or passages of the source. These are yes or no findings as the source states them, for the method shown. In cells and extracts the contact can be indirect. These calls come from enrichment with a bait or labelling near it, and not all partners need be listed.

For the molecule UTRN (from UniProt P46939 1-3433), the binding entry with PANX1-BirA*(R118G)-HA [1] and in the experiment with Myc-PANX1 was “binds” each time.

For the molecule MYH9 (from UniProt P35579 1-1960), the binding result in the experiment with PANX1-BirA*(R118G)-HA [1] and with Myc-PANX1 was “binds” in each case.

In the case of AHNAK (from UniProt Q09666 1-5890), the binding entry with PANX1-BirA*(R118G)-HA [1] and in the experiment with Myc-PANX1 was “binds” each time.

Annexin A2 (from UniProt P07355 1-339): in the experiment with PANX1-BirA*(R118G)-HA [1], the binding result is “binds”.

B1: septin-9 (protein, UniProt Q9UHD8 1-586)
chain: MKKSYSGGTRTSSGRLRRLGDSSGPALKRSFEVEEVETPNSTPPRRVQTPLLRATVASSTQKFQDLGVKNSEPSARHVDSLSQRSPKASLRRVELSGPKAAEPVSRRTELSIDISSKQVENAGAIGPSRFGLKRAEVLGHKTPEPAPRRTEITIVKPQESAHRRMEPPASKVPEVPTAPATDAAPKRVEIQMPKPAEAPTAPSPAQTLENSEPAPVSQLQSRLEPKPQPPVAEATPRSQEATEAAPSCVGDMADTPRDAGLKQAPASRNEKAPVDFGYVGIDSILEQMRRKAMKQGFEFNIMVVGQSGLGKSTLINTLFKSKISRKSVQPTSEERIPKTIEIKSITHDIEEKGVRMKLTVIDTPGFGDHINNENCWQPIMKFINDQYEKYLQEEVNINRKKRIPDTRVHCCLYFIPATGHSLRPLDIEFMKRLSKVVNIVPVIAKADTLTLEERVHFKQRITADLLSNGIDVYPQKEFDEDSEDRLVNEKFREMIPFAVVGSDHEYQVNGKRILGRKTKWGTIEVENTTHCEFAYLRDLLIRTHMQNIKDITSSIHFEAYRVKRLNEGSSAMANGMEEKEPEAPEM
For B1, the binding entry in the experiment with PANX1-BirA*(R118G)-HA [2] is recorded as “binds”.
